{"sequences": {"note": "Sequences of proteins named here, by UniProt entry; tags and fusion partners are left off. A change or cut given only in a name is not applied to a line headed by its entry.", "UniProt Q96K80": "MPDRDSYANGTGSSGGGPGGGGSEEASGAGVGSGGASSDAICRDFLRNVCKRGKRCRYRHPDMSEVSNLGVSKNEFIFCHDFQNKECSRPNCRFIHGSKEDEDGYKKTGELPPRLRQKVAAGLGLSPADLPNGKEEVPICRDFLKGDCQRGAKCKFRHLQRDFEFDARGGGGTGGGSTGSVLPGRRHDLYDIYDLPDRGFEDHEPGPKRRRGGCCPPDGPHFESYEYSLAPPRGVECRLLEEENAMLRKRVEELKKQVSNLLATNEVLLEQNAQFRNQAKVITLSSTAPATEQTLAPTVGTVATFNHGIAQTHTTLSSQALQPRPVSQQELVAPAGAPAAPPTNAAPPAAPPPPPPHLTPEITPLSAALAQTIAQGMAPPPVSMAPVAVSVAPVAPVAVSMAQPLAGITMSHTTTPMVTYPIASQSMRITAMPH", "UniProt Q9H0D6": "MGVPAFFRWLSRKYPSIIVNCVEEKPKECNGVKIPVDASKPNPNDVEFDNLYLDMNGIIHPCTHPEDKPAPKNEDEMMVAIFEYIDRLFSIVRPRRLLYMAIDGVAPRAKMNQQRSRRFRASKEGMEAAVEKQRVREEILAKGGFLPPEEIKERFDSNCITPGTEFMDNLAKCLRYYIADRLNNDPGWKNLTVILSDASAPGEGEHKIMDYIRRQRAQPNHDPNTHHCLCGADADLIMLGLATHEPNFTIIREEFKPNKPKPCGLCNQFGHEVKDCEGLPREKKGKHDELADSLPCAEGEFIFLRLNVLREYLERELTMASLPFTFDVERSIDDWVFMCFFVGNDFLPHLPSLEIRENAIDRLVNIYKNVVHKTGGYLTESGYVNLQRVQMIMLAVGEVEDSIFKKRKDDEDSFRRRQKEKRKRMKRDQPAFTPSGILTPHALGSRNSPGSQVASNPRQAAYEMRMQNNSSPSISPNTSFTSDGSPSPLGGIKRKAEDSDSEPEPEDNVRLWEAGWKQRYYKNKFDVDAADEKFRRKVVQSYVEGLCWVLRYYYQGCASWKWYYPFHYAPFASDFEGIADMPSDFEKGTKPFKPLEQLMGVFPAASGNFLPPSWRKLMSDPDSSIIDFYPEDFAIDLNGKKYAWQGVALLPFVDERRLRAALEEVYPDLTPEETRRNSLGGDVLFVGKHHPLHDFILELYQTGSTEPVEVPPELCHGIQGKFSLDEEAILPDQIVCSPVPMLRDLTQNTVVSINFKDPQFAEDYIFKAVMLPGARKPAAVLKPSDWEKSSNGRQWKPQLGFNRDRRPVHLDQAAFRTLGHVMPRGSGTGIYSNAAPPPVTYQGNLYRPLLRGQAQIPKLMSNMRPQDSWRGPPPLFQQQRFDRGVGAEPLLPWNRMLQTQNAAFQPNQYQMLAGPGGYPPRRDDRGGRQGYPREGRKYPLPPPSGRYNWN", "UniProt P13051, whole entry": "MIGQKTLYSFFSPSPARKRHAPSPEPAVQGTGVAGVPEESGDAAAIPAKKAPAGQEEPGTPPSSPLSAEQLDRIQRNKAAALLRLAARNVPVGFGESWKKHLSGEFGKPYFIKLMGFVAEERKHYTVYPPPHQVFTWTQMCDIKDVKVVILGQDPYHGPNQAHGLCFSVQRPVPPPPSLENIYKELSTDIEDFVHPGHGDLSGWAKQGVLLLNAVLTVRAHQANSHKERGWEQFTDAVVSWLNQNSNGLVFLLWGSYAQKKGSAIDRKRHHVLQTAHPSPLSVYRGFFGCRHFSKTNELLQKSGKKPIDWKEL", "UniProt Q8WVY7": "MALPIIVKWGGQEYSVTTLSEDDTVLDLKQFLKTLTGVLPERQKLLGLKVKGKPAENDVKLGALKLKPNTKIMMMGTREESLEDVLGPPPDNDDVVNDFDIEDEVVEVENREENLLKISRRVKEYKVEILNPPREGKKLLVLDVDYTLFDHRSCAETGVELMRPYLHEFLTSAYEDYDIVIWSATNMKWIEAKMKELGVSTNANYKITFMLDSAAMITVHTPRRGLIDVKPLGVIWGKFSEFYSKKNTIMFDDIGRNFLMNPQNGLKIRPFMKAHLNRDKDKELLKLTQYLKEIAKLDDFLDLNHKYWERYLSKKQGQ", "UniProt Q9NP79": "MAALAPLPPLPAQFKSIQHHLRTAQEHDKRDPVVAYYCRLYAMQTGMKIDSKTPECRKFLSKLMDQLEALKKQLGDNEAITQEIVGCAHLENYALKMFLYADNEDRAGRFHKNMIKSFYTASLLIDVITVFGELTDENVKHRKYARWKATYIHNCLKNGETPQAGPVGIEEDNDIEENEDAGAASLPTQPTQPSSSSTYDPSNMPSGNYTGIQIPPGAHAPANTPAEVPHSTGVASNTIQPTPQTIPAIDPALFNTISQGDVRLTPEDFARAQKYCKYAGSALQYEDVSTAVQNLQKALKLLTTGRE", "UniProt Q5MNZ6": "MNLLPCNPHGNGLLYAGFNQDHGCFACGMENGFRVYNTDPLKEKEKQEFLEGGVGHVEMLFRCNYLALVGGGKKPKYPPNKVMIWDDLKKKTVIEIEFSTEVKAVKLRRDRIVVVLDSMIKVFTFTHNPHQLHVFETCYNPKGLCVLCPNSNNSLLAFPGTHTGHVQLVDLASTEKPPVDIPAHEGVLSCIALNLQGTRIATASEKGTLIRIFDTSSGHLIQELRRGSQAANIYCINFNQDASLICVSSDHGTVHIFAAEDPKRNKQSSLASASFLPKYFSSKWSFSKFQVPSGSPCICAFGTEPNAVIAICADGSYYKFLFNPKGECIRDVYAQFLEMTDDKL", "UniProt P13010": "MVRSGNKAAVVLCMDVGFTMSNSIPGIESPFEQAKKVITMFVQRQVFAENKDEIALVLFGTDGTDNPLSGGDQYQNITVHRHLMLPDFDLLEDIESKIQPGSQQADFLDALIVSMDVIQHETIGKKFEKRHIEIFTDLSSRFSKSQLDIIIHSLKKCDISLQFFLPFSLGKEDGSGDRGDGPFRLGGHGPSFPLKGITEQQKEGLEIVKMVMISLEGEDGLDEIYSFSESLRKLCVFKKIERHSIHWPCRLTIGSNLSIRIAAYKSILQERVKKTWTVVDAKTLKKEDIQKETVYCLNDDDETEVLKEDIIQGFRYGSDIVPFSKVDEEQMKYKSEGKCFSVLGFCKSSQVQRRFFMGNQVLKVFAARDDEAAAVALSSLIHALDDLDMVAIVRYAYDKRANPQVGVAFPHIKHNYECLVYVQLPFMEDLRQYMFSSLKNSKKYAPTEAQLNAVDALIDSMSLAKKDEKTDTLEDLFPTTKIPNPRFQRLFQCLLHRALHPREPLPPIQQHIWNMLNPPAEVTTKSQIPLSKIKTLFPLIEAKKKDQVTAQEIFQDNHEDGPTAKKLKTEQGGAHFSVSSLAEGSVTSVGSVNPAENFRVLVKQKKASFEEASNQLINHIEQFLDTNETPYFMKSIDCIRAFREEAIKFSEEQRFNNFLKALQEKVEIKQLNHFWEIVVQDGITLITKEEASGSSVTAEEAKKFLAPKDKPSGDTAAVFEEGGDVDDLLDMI", "UniProt P51784": "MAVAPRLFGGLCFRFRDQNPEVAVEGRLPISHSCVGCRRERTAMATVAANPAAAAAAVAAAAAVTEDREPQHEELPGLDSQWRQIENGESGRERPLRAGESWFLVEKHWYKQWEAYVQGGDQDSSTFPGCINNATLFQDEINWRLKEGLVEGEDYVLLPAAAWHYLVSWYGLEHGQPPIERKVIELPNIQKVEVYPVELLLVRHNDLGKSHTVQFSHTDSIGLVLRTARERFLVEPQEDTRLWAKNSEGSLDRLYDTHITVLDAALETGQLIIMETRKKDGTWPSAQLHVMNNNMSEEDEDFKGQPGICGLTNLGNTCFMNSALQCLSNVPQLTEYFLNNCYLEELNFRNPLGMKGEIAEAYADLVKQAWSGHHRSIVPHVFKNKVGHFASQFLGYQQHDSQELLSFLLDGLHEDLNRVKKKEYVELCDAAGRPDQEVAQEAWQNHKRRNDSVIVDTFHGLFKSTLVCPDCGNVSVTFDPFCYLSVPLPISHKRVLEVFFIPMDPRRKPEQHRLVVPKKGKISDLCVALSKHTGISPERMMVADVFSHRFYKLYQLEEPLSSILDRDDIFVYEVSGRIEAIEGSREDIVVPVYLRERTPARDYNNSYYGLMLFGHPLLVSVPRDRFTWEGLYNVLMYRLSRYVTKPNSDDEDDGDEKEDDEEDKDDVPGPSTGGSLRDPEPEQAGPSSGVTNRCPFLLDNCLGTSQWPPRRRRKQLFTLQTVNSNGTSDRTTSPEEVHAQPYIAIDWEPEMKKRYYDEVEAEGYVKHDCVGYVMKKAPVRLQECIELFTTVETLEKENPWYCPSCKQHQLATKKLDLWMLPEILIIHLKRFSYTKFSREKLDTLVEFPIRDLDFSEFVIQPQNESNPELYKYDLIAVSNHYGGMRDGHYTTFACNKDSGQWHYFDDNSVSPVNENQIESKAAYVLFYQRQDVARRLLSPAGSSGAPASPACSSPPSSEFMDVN", "UniProt Q9H1Z4": "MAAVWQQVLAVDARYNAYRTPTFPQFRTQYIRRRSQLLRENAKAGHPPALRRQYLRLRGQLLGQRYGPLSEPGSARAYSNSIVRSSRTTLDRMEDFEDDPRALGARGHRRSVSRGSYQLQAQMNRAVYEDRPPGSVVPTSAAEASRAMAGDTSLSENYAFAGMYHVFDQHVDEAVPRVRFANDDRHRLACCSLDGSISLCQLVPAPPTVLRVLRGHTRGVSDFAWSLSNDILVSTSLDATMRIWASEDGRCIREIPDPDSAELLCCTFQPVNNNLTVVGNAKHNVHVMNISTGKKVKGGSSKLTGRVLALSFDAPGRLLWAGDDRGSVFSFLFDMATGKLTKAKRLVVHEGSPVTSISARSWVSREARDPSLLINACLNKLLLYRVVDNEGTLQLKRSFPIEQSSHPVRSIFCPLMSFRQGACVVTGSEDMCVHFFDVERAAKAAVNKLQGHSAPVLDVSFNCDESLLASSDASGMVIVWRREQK", "UniProt P63279, whole entry": "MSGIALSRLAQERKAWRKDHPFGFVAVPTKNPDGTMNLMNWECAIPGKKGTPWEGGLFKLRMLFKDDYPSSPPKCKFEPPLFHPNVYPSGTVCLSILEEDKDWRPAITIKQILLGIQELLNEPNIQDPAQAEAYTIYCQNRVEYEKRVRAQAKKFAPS", "UniProt Q9Y3C0": "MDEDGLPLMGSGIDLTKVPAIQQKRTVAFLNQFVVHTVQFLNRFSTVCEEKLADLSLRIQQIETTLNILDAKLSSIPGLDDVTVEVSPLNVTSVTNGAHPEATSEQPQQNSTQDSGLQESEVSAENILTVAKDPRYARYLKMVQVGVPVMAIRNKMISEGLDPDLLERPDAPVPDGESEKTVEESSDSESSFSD", "UniProt P98170, whole entry": "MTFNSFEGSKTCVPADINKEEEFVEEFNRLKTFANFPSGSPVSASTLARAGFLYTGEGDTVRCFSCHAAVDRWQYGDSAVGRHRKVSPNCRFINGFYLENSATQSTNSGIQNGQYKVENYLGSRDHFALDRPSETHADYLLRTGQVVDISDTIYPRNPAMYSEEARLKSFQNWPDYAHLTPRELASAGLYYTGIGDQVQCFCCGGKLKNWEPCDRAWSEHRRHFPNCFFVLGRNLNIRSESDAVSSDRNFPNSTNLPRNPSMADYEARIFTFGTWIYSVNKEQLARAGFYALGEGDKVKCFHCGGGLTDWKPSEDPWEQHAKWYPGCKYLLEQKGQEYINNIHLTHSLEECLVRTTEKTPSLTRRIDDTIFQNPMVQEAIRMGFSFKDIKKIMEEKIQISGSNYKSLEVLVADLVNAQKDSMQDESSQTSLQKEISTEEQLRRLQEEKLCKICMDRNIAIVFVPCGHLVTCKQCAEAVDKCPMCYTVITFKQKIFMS", "UniProt Q9UBK9, whole entry": "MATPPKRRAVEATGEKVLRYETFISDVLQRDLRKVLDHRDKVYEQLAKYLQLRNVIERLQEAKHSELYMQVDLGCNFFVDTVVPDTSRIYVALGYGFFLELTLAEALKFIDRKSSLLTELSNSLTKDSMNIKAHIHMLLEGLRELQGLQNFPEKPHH", "UniProt Q9Y2W2": "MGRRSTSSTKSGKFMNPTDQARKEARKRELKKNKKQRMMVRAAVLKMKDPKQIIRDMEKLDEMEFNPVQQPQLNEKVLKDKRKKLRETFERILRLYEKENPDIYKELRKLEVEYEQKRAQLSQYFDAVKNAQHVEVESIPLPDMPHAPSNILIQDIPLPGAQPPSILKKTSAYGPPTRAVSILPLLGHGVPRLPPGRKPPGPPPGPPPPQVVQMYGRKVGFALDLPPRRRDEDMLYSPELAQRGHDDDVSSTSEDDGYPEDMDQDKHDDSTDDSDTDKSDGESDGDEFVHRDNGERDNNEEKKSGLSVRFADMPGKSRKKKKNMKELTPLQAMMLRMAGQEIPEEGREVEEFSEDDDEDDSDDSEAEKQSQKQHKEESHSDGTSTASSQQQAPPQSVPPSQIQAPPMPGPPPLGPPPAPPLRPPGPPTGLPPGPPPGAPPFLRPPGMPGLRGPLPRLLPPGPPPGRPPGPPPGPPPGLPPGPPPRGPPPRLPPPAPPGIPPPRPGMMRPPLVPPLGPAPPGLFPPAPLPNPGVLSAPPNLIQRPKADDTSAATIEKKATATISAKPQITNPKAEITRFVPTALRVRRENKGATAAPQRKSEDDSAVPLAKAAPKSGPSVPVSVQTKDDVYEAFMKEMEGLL"}, "source": "the supplement of paper PMC7666118", "note": "Some of the results follow.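 Rule for the calls: active = dose-dependent thermal stabilisation significant by F-test of dose-response against flat model at 10% FDR; inactive = not significant.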", "data": [{"compound": "Nc1nc2c(ncn2[C@@H]2O[C@H](COP(=O)(O)OP(=O)(O)OP(=O)(O)O)[C@@H](O)[C@H]2O)c(=O)[nH]1", "assay": "dose-dependent thermal stabilisation call (2D-TPP, DLPTP, 10% FDR) (binary (1 = stabilised)); higher = stabilised by the compound", "details": "system: Jurkat gel-filtered lysate; concentration range 1-500 µM", "values": [{"target": "UBE2D3 (UniProt P61077)", "dose-dependent thermal stabilisation call": "inactive: 0"}, {"target": "WDR20 (UniProt Q8TBZ3)", "dose-dependent thermal stabilisation call": "inactive: 0"}, {"target": "UBR7 (UniProt Q8N806)", "dose-dependent thermal stabilisation call": "inactive: 0"}, {"target": "ZC3H10 (UniProt Q96K80)", "dose-dependent thermal stabilisation call": "inactive: 0"}, {"target": "XRN2 (UniProt Q9H0D6)", "dose-dependent thermal stabilisation call": "inactive: 0"}, {"target": "ZC3H11A (UniProt O75152)", "dose-dependent thermal stabilisation call": "inactive: 0"}, {"target": "UNG (UniProt P13051)", "dose-dependent thermal stabilisation call": "active: 1"}, {"target": "ZC3HC1 (UniProt Q86WB0)", "dose-dependent thermal stabilisation call": "inactive: 0"}, {"target": "ZBTB14 (UniProt O43829)", "dose-dependent thermal stabilisation call": "inactive: 0"}, {"target": "WDR82 (UniProt Q6UXN9)", "dose-dependent thermal stabilisation call": "inactive: 0"}, {"target": "UBLCP1 (UniProt Q8WVY7)", "dose-dependent thermal stabilisation call": "inactive: 0"}, {"target": "VTA1 (UniProt Q9NP79)", "dose-dependent thermal stabilisation call": "inactive: 0"}, {"target": "WDR45B (UniProt Q5MNZ6)", "dose-dependent thermal stabilisation call": "inactive: 0"}, {"target": "XRCC5 (UniProt P13010)", "dose-dependent thermal stabilisation call": "inactive: 0"}, {"target": "YAF2 (UniProt Q8IY57)", "dose-dependent thermal stabilisation call": "inactive: 0"}, {"target": "UQCC1 (UniProt Q9NVA1)", "dose-dependent thermal stabilisation call": "inactive: 0"}, {"target": "WDR12 (UniProt Q9GZL7)", "dose-dependent thermal stabilisation call": "inactive: 0"}, {"target": "USP11 (UniProt P51784)", "dose-dependent thermal stabilisation call": "active: 1"}, {"target": "ZER1 (UniProt Q7Z7L7)", "dose-dependent thermal stabilisation call": "inactive: 0"}, {"target": "UBR4 (UniProt Q5T4S7)", "dose-dependent thermal stabilisation call": "inactive: 0"}, {"target": "WDR13 (UniProt Q9H1Z4)", "dose-dependent thermal stabilisation call": "inactive: 0"}, {"target": "ZBTB8OS (UniProt Q8IWT0)", "dose-dependent thermal stabilisation call": "active: 1"}, {"target": "UBE2I (UniProt P63279)", "dose-dependent thermal stabilisation call": "inactive: 0"}, {"target": "USP14 (UniProt P54578)", "dose-dependent thermal stabilisation call": "inactive: 0"}, {"target": "WASHC3 (UniProt Q9Y3C0)", "dose-dependent thermal stabilisation call": "inactive: 0"}, {"target": "XIAP (UniProt P98170)", "dose-dependent thermal stabilisation call": "inactive: 0"}, {"target": "VPS8 (UniProt Q8N3P4)", "dose-dependent thermal stabilisation call": "inactive: 0"}, {"target": "UBE2V1 (UniProt Q13404)", "dose-dependent thermal stabilisation call": "inactive: 0"}, {"target": "UCK2 (UniProt Q9BZX2)", "dose-dependent thermal stabilisation call": "active: 1"}, {"target": "UHRF1BP1L (UniProt A0JNW5)", "dose-dependent thermal stabilisation call": "inactive: 0"}, {"target": "ULBP2 (UniProt Q9BZM5)", "dose-dependent thermal stabilisation call": "inactive: 0"}, {"target": "ZC3HAV1 (UniProt Q7Z2W4)", "dose-dependent thermal stabilisation call": "inactive: 0"}, {"target": "UXT (UniProt Q9UBK9)", "dose-dependent thermal stabilisation call": "inactive: 0"}, {"target": "UBR1 (UniProt Q8IWV7)", "dose-dependent thermal stabilisation call": "inactive: 0"}, {"target": "WBP11 (UniProt Q9Y2W2)", "dose-dependent thermal stabilisation call": "inactive: 0"}, {"target": "WDR89 (UniProt Q96FK6)", "dose-dependent thermal stabilisation call": "inactive: 0"}]}]}
